# Data taken from the supplement of paper PMC8728848.
# Some of the results follow.
# Key:
# Assay in all cases: glycan array binding signal (z-score within array); higher = stronger binding
# Conditions in all cases: glycan notation: IUPAC condensed, linker removed
# [1] = molecular target: Gal(b1-4)GlcNAc(b1-3)Gal(b1-4)GlcNAc(b1-3)[Gal(b1-4)GlcNAc(b1-3)Gal(b1-4)GlcNAc(b1-6)]GalNAc
# Method in brief: (§1)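 Columns mapping to the same glycan were averaged after glycan names were converted to IUPAC-condensed notation. The data come from 3228 arrays in the Consortium for Functional Glycomics database, limited to those with an available protein sequence. Binding is reported as a within-array Z-score averaged across arrays of one protein sequence and across linkers.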
# [2] = molecular target: Gal(b1-4)GlcNAc(b1-3)Gal(b1-4)GlcNAc(b1-6)[Gal(b1-3)]GalNAc
# Method in brief: as §1
# [3] = molecular target: Gal(b1-4)GlcNAc(b1-3)Gal(b1-4)[Fuc(a1-3)]GlcNAc(b1-3)Gal(b1-4)[Fuc(a1-3)]GlcNAc
# Method in brief: as §1
# [4] = molecular target: Gal(b1-4)GlcNAc(b1-3)GalNAc
# Method in brief: as §1
# [5] = molecular target: Gal(b1-4)GlcNAc(b1-3)[Fuc(a1-3)GlcNAc(b1-6)]Gal(b1-4)Glc
# Method in brief: as §1
# [6] = molecular target: Gal(b1-4)GlcNAc(b1-3)[Gal(b1-4)GlcNAc(b1-6)]Gal(b1-4)GlcNAc
# Method in brief: as §1
# [7] = molecular target: Gal(b1-4)GlcNAc(b1-3)[GlcNAc(b1-6)]Gal(b1-4)GlcNAc
# Method in brief: as §1
# [8] = molecular target: Gal(b1-4)GlcNAc(b1-6)Gal(b1-4)GlcNAc
# Method in brief: as §1
# [9] = molecular target: Gal(b1-4)GlcNAc(b1-6)GalNAc
# Method in brief: as §1
# [10] = molecular target: Gal(b1-4)GlcNAc(b1-6)[Gal(b1-3)]GalNAc
# Method in brief: as §1
# [11] = molecular target: Gal(b1-4)GlcNAc(b1-6)[Gal(b1-4)GlcNAc(b1-3)]GalNAc
# Method in brief: as §1
# Gal(b1-4)GlcNAc6P = molecular target: Gal(b1-4)GlcNAc6P
# Method in brief: as §1
# Gal(b1-6)Gal = molecular target: Gal(b1-6)Gal
# Method in brief: as §1
# Gal3S(b1-3)GalNAc = molecular target: Gal3S(b1-3)GalNAc
# Method in brief: as §1
# Gal3S(b1-3)GlcNAc = molecular target: Gal3S(b1-3)GlcNAc
# Method in brief: as §1
# [12] = molecular target: Gal3S(b1-3)[Fuc(a1-4)]GlcNAc
# Method in brief: as §1
# Gal3S(b1-4)Glc = molecular target: Gal3S(b1-4)Glc
# Method in brief: as §1
# Gal3S(b1-4)Glc6S = molecular target: Gal3S(b1-4)Glc6S
# Method in brief: as §1
# Gal3S(b1-4)GlcNAc = molecular target: Gal3S(b1-4)GlcNAc
# Method in brief: as §1
# [13] = molecular target: Gal3S(b1-4)[Fuc(a1-3)]Glc6S
# Method in brief: as §1
# [14] = molecular target: Gal3S(b1-4)[Fuc(a1-3)]GlcNAc
# Method in brief: as §1
# [15] = molecular target: Gal3S(b1-4)[Fuc(a1-3)]GlcNAc6S
# Method in brief: as §1
# Gal3S4S(b1-4)GlcNAc = molecular target: Gal3S4S(b1-4)GlcNAc
# Method in brief: as §1
# Gal3S6S(b1-4)GlcNAc = molecular target: Gal3S6S(b1-4)GlcNAc
# Method in brief: as §1
# Gal3S6S(b1-4)GlcNAc6S = molecular target: Gal3S6S(b1-4)GlcNAc6S
# Method in brief: as §1
# Gal4S(b1-4)GlcNAc = molecular target: Gal4S(b1-4)GlcNAc
# Method in brief: as §1
# Gal4S6S(b1-4)GlcNAc = molecular target: Gal4S6S(b1-4)GlcNAc
# Method in brief: as §1
# Gal6P(b1-4)GlcNAc = molecular target: Gal6P(b1-4)GlcNAc
# Method in brief: as §1
# Gal6S(b1-3)GlcNAc = molecular target: Gal6S(b1-3)GlcNAc
# Method in brief: as §1
# Gal6S(b1-3)GlcNAc6S = molecular target: Gal6S(b1-3)GlcNAc6S
# Method in brief: as §1
# Gal6S(b1-4)Glc = molecular target: Gal6S(b1-4)Glc
# Method in brief: as §1
# Gal6S(b1-4)Glc6S = molecular target: Gal6S(b1-4)Glc6S
# Method in brief: as §1
# Gal6S(b1-4)GlcNAc = molecular target: Gal6S(b1-4)GlcNAc
# Method in brief: as §1
# Gal6S(b1-4)GlcNAc6S = molecular target: Gal6S(b1-4)GlcNAc6S
# Method in brief: as §1
# GalNAc(a1-3)Gal = molecular target: GalNAc(a1-3)Gal
# Method in brief: as §1
# GalNAc(a1-3)GalNAc = molecular target: GalNAc(a1-3)GalNAc
# Method in brief: as §1
# [16] = molecular target: GalNAc(a1-3)GalNAc(b1-3)Gal(a1-4)Gal(b1-4)Glc
# Method in brief: as §1
binder,measurement,setting,value
"AT3G09350(27) (Arabidopsis thaliana), Q84J81 (protein) MAKDGPNWDGLLKWSLSHADGTRPTRQLSEEDRKWFMEAMQSQTVDVVKRMKEITLVMQTPEQVLVEHGVTPEDIQDLLDELQEHVESIDMANDLHSIGGLVPLLSFLKNSHANIRAKAADVVSTIVQNNPRSQELVMETNALESLLSNFTSDTDIHARTQALGAISSLIRHNKPGVTAFKLANGYAGLRDALASDSVRFQRKALNLLQYLLQEDDSDRSIATGLGFPRVMMHLASSDDAEIREAALRGLLELSREKNDGSSSIDKSDEKLRQLLEERIKGITLMSQEDLETVKEERQLVDLLWSICYNEPSSLREKGLVVLPGEDALPPDVASKLFEPPLRASAANRNATEKKDEPMKLLGP",glycan array binding signal (z-score),[1],0.75
same,glycan array binding signal (z-score),[2],0.664
same,glycan array binding signal (z-score),[3],-0.124
same,glycan array binding signal (z-score),[4],0.107
same,glycan array binding signal (z-score),[5],-0.479
same,glycan array binding signal (z-score),[6],-0.6
same,glycan array binding signal (z-score),[7],-0.276
same,glycan array binding signal (z-score),[8],3.1
same,glycan array binding signal (z-score),[9],0.399
same,glycan array binding signal (z-score),[10],-0.205
same,glycan array binding signal (z-score),[11],-0.507
same,glycan array binding signal (z-score),Gal(b1-4)GlcNAc6P,-0.474
same,glycan array binding signal (z-score),Gal(b1-6)Gal,-0.033
same,glycan array binding signal (z-score),Gal3S(b1-3)GalNAc,0.155
same,glycan array binding signal (z-score),Gal3S(b1-3)GlcNAc,-0.246
same,glycan array binding signal (z-score),[12],-0.345
same,glycan array binding signal (z-score),Gal3S(b1-4)Glc,0.776
same,glycan array binding signal (z-score),Gal3S(b1-4)Glc6S,-0.31
same,glycan array binding signal (z-score),Gal3S(b1-4)GlcNAc,0.143
same,glycan array binding signal (z-score),[13],-0.174
same,glycan array binding signal (z-score),[14],0.214
same,glycan array binding signal (z-score),[15],0.294
same,glycan array binding signal (z-score),Gal3S4S(b1-4)GlcNAc,-0.927
same,glycan array binding signal (z-score),Gal3S6S(b1-4)GlcNAc,1
same,glycan array binding signal (z-score),Gal3S6S(b1-4)GlcNAc6S,1.74
same,glycan array binding signal (z-score),Gal4S(b1-4)GlcNAc,-0.27
same,glycan array binding signal (z-score),Gal4S6S(b1-4)GlcNAc,-0.065
same,glycan array binding signal (z-score),Gal6P(b1-4)GlcNAc,-0.424
same,glycan array binding signal (z-score),Gal6S(b1-3)GlcNAc,-0.146
same,glycan array binding signal (z-score),Gal6S(b1-3)GlcNAc6S,-0.279
same,glycan array binding signal (z-score),Gal6S(b1-4)Glc,-0.106
same,glycan array binding signal (z-score),Gal6S(b1-4)Glc6S,0.228
same,glycan array binding signal (z-score),Gal6S(b1-4)GlcNAc,-0.93
same,glycan array binding signal (z-score),Gal6S(b1-4)GlcNAc6S,-0.56
same,glycan array binding signal (z-score),GalNAc(a1-3)Gal,-0.077
same,glycan array binding signal (z-score),GalNAc(a1-3)GalNAc,-0.182
same,glycan array binding signal (z-score),[16],-0.54

# A different layout for part of the listing above.
binder	measurement	setting	value
AT3G09350(27) (Arabidopsis thaliana), Q84J81 (protein) MAKDGPNWDGLLKWSLSHADGTRPTRQLSEEDRKWFMEAMQSQTVDVVKRMKEITLVMQTPEQVLVEHGVTPEDIQDLLDELQEHVESIDMANDLHSIGGLVPLLSFLKNSHANIRAKAADVVSTIVQNNPRSQELVMETNALESLLSNFTSDTDIHARTQALGAISSLIRHNKPGVTAFKLANGYAGLRDALASDSVRFQRKALNLLQYLLQEDDSDRSIATGLGFPRVMMHLASSDDAEIREAALRGLLELSREKNDGSSSIDKSDEKLRQLLEERIKGITLMSQEDLETVKEERQLVDLLWSICYNEPSSLREKGLVVLPGEDALPPDVASKLFEPPLRASAANRNATEKKDEPMKLLGP	glycan array binding signal (z-score)	[2]	0.664
same	glycan array binding signal (z-score)	[3]	-0.124
